No constants are given. Whether binding was seen depends on the method and setting. In cells and extracts the contact can be indirect. For some of these results: Binding calls can cover weak binding; strength is not graded here. Tags and fused reporters may be left off the sequences shown.
Tests used:
[1] = biological target: zebrafish Lefty1/HA (zebrafish); assay: co-IP; mRNAs (1 ng each) injected into Xenopus embryos; after chemical cross-linking (DTSSP) lysates immunoprecipitated with anti-HA antibody for Lefty1/HA or Sqt/HA; Western blot (Figure 3A)
[2] = biological target: Sqt^ActβB[loopβ8]/HA (zebrafish | Xenopus); assay: co-IP; RNAs (1 ng each) for ligand/HA, ActRIIB(KR)/Myc and Alk4(KR)/Flag injected into Xenopus embryos, without Cripto/Flag; Western blot of coimmunoprecipitates (Figure 5F)
[3] = biological target: Xenopus ActivinβB/HA (Xenopus); assay: as above
[4] = biological target: Sqt^ActβB[loopβ8]/HA (zebrafish | Xenopus); assay: co-IP; RNAs (1 ng each) for ligand/HA, ActRIIB(KR)/Myc and Alk4(KR)/Flag injected into Xenopus embryos, with Cripto/Flag; Western blot of coimmunoprecipitates (Figure 5F)

B1: human Alk4(KR)/Flag (receptor, UniProt P36896 24-505)
chain: SGPRGVQALLCACTSCLQANYTCETDGACMVSIFNLDGMEHHVRTCIPKVELVPAGKPFYCLSSEDLRNTHCCYTDYCNRIDLRVPSGHLKEPEHPSMWGPVELVGIIAGPVFLLFLIIIIVFLVINYHQRVYHNRQRLDMEDPSCEMCLSKDKTLQDLVYDLSTSGSGSGLPLFVQRTVARTIVLQEIIGKGRFGEVWRGRWRGGDVAVRIFSSREERSWFREAEIYQTVMLRHENILGFIAADNKDNGTWTQLWLVSDYHEHGSLFDYLNRYTVTIEGMIKLALSAASGLAHLHMEIVGTQGKPGIAHRDLKSKNILVKKNGMCAIADLGLAVRHDAVTDTIDIAPNQRVGTKRYMAPEVLDETINMKHFDSFKCADIYALGLVYWEIARRCNSGGVHEEYQLPYYDLVPSDPSIEEMRKVVCDQKLRPNIPNWWQSYEALRVMGKMMRECWYANGAARLTALRIKKTLSQLSVQEDVKI
binding [1]: no binding | binding [2]: binds | binding [3]: binds | binding [4]: binds

Reference: paper PMC340941
